## Percent effect of library compounds

Amino acid sequences for entries named in this document (tags omitted). Residues count along the entry.
UniProt Q8IDJ8, 1-583: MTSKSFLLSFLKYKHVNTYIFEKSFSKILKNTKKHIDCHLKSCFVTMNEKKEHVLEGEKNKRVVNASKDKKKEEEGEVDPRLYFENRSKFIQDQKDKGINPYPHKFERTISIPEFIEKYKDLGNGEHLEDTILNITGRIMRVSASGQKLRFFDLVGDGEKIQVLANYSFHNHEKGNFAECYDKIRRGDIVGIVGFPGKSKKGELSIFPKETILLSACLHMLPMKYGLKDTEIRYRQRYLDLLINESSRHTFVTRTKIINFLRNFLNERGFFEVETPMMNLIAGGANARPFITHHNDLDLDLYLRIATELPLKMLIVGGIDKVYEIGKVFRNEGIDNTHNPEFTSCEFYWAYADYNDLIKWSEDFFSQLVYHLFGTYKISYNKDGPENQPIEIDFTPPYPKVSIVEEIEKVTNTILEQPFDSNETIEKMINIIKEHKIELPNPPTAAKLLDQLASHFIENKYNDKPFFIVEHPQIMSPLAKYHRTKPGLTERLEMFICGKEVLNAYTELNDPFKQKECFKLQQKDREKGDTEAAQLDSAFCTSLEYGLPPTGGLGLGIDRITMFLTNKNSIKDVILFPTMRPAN
UniProt A4I591, 1-473: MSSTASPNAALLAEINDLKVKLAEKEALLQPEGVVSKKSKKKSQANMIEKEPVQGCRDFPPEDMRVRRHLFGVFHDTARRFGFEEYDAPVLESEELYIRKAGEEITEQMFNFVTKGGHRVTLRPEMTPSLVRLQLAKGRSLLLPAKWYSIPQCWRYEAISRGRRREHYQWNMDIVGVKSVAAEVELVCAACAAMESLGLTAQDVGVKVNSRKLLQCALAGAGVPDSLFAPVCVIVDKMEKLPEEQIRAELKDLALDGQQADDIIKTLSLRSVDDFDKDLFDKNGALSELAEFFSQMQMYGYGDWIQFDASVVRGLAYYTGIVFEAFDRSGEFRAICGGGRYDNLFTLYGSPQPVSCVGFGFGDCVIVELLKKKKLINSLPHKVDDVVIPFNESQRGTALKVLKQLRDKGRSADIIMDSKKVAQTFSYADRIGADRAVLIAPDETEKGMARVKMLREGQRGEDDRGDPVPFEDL

From ChEMBL document CHEMBL3988442, “University of Dundee, Small-Polar-MMV Screening Library” (2021).

T. brucei: 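Whole-parasite assay of Trypanosoma brucei over 72 hours; the read-out is not stated. Compounds at 30 µM. The record gives no direction; compounds that gave an IC50 in retests scored well above the rest, so higher reads as stronger inhibition. Values scatter widely below zero; nearly all retest evidence comes from the higher of the two concentrations used. Size under these conditions: about 64,000 compounds, about 940 of them at 50% or above in at least one test.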
PfKRS1: 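Enzyme assay of the cytosolic lysyl-tRNA synthetase in 384-well plates, read by luminescence. Target: Lysine-tRNA ligase, Plasmodium falciparum 3D7 (UniProt Q8IDJ8). Tested at 30 µM. Direction is inferred from only a few compounds that gave an IC50; most scored high, so higher reads as stronger inhibition. Size under these conditions: about 69,000 compounds, about 49 of them at 50% or above in at least one test.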
LiHisRS: 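Histidine-tRNA ligase, Leishmania infantum (UniProt A4I591). Enzyme assay of histidyl-tRNA synthetase; the read-out is not stated. Tested at 30 µM. The record gives no direction; compounds that gave an IC50 in retests scored well above the rest, so higher reads as stronger inhibition. The assay is labelled LdHisRS but filed under L. infantum. Of about 69,000 compounds tested this way, about 410 (0.6%) reached 50% or more in at least one test.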
Toxoplasma: 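Assay of Toxoplasma gondii numbers, read through their beta-galactosidase reporter with a colour substrate. Tested at 10 µM. Higher reads as fewer parasites (inferred from which compounds were picked for retests). About 67,000 compounds were tested under these conditions; 0.38% (about 260) showed 50% or more at least once.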

Each number is a percent effect as filed. The controls that fix the scale are not given in the record; negative values are as filed. This is an unselected part of the compounds tested.

With COc1ccc2c(ccn2CCC(=O)NCCC(=O)O)c1 the screen gave T. brucei: -38.89%; PfKRS1: -1.448%; LiHisRS: 7.609%; Toxoplasma: 9.299%.
With Cc1ccc(OC2CCN(CCn3cncn3)CC2)cc1 the screen gave T. brucei: -8.461%; PfKRS1: 0.8487%; LiHisRS: 1.37%; Toxoplasma: 7.294%.
With Cc1nnc([C@@]23CCO[C@@H]2CCN(S(=O)(=O)c2ccccc2)C3)o1 the screen gave PfKRS1: 4.39%; LiHisRS: 11.71%.
With [H][C@@]12COC[C@]1(COCc1cccnc1)CN(C(=O)CCOC)C2 the screen gave T. brucei: -22.42%; Toxoplasma: -0.8869%.
With COc1ccc(CCC(=O)N2CCCC(n3cncn3)C2)cc1 (centres undefined) the screen gave T. brucei: -6.228%; PfKRS1: 0.8375%; LiHisRS: 1.786%; Toxoplasma: -1.941%.
With Cc1ccc(S(=O)(=O)N2CCC3(CC(C(=O)NCC(C)C)=NO3)C2)cc1 (centres undefined) the screen gave T. brucei: 34.11%; PfKRS1: 8.315%; LiHisRS: 16.36%; Toxoplasma: 3.983%.
With O=C(Cc1cccc(F)c1)NCCNCC1CNc2ccnn2C1 (centres undefined) the screen gave T. brucei: -27.66%; PfKRS1: 4.359%; LiHisRS: 15.07%; Toxoplasma: -3.287%.
With CC(=O)NCCOc1c(C)cccc1C the screen gave T. brucei: -24.03%; PfKRS1: -1.703%; LiHisRS: 15.62%; Toxoplasma: 2.263%.
With Cn1ncc(NCc2cccc(F)c2)c(Cl)c1=O the screen gave T. brucei: -4.728%; PfKRS1: 3.494%; LiHisRS: 12.07%; Toxoplasma: 3.487%.
With COCCN1CCC2(CC1)CN(C(=O)c1cccs1)CCO2 the screen gave PfKRS1: -5.84%; LiHisRS: -3.846%.
With Cc1noc(C(C)N2CCC(c3nc4ccccc4[nH]3)CC2)n1 (centres undefined) the screen gave T. brucei: -4.662%; PfKRS1: -0.1195%; LiHisRS: 18.6%; Toxoplasma: -3.84%.
With CC[C@H](Nc1nc(C(C)C)nc2c1cnn2C)c1ccccc1 the screen gave T. brucei: 20.81%; PfKRS1: 4.844%; LiHisRS: -15.38%; Toxoplasma: 25.41%.
With O=C(O)C(F)(F)F.[H][C@]12CC[C@@]3(N=C(C)N(CC4CC4)C3=O)[C@@]1([H])CN(Cc1ccccc1F)C2 the screen gave T. brucei: 55.44%; Toxoplasma: -6.388%.
With O=C(Nc1ccccc1)C1=NOC2(CCCNC2)C1 (centres undefined) the screen gave T. brucei: -31.93%; PfKRS1: -7.734%; LiHisRS: -7.895%; Toxoplasma: 7.979%.
With CC(C)c1nn(C)c(Cl)c1CNCc1ccc2c(c1)OCO2.Cl the screen gave T. brucei: 14.28%; Toxoplasma: -6.756%.
With Cc1[nH]c(=O)c(C#N)cc1C(=O)N1C[C@@H](CN2CCCC2)C[C@H](CO)C1 the screen gave T. brucei: -23.78%; PfKRS1: -1.103%; LiHisRS: -1.905%; Toxoplasma: 0.5515%.
With c1cc(CN2CCCCC2c2ccc(Nc3cnccn3)nc2)ccn1 (centres undefined) the screen gave T. brucei: 4.662%; PfKRS1: 3.425%; LiHisRS: 9.859%; Toxoplasma: 6.157%.
With Cc1ccnc(NC(=O)c2ccc(-n3ncc(C#N)c3N)cc2)c1 the screen gave PfKRS1: -0.1973%; LiHisRS: 6.78%; Toxoplasma: -49.94%.
With CSc1ccccc1C(=O)N1CCOC(CCN(C)C)C1 (centres undefined) the screen gave T. brucei: -2.85%; PfKRS1: 1.197%; LiHisRS: 8.163%; Toxoplasma: 3.419%.
With CCC(Nc1nc(C)nc2c1cnn2C)c1ncnn1CC (centres undefined) the screen gave T. brucei: -42.09%; PfKRS1: 0.9898%; LiHisRS: 5.479%; Toxoplasma: 8.571%.
With O=C(Nc1ccccc1)c1ccc(NCc2nccs2)nn1 the screen gave T. brucei: -55.75%; PfKRS1: -0.3939%; LiHisRS: 21.13%; Toxoplasma: 6.041%.
With CCN(C)c1ccc(CNS(=O)(=O)CC2CCCO2)cc1F (centres undefined) the screen gave T. brucei: -4.707%; PfKRS1: 3.85%; LiHisRS: -10.26%; Toxoplasma: 9.457%.
With CN(Cc1ccco1)[C@@H]1CN(C(=O)c2ccnnc2)[C@@H]2CCCO[C@H]12 the screen gave PfKRS1: 0.08004%; LiHisRS: 15.24%.
With CSc1[nH]nc(NC(=O)c2ccccc2)c1C#N the screen gave T. brucei: -8.501%; PfKRS1: 0.3203%; LiHisRS: 18.68%; Toxoplasma: 1.762%.
With O=C(CCN1CCCCC1)Nc1c2c(cc3c1CCC3)CCC2 the screen gave PfKRS1: 1.532%; LiHisRS: 12.64%.
With CNC(=O)CNC(=O)CC1C(=O)NCCN1Cc1ccccc1C (centres undefined) the screen gave T. brucei: -19.56%; PfKRS1: 6.037%; LiHisRS: 12.5%; Toxoplasma: 3.285%.
With COCCN1C[C@H]2CC[C@@H]1CN(Cc1nc3ccccc3n1C)C2 the screen gave PfKRS1: 1.655%; LiHisRS: 28.12%.

Some entries from above, unchanged:

For Cc1[nH]c(=O)c(C#N)cc1C(=O)N1C[C@@H](CN2CCCC2)C[C@H](CO)C1 the result was T. brucei: -23.78%; PfKRS1: -1.103%; LiHisRS: -1.905%; Toxoplasma: 0.5515%.
For [H][C@@]12COC[C@]1(COCc1cccnc1)CN(C(=O)CCOC)C2 the result was T. brucei: -22.42%; Toxoplasma: -0.8869%.
For CCC(Nc1nc(C)nc2c1cnn2C)c1ncnn1CC (centres undefined) the result was T. brucei: -42.09%; PfKRS1: 0.9898%; LiHisRS: 5.479%; Toxoplasma: 8.571%.